Source: patent publication US20040191926A1 (priority 2001, published 2004)
At least one structure is not confirmed: it was looked up by name or label, or the drawing left a doubt.

Target: T1, PTP1B/C215S (Homo sapiens, UniProt P18031, C215S)
T1 construct: catalytic domain of human PTP1B (amino acid 1-321); made in house; host or cells: Escherichia coli BL21(DE3)
T1 sequence (P18031 1-321 C215S): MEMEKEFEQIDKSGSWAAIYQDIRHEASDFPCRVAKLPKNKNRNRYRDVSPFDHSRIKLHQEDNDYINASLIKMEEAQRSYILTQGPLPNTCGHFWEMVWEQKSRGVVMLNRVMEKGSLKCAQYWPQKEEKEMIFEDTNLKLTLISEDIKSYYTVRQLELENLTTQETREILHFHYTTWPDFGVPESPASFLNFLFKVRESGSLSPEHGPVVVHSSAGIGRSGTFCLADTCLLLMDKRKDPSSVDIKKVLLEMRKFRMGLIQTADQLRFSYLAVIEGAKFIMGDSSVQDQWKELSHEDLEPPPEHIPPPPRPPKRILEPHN
Assay: Equilibrium dialysis determination of Kd
Type: binding
Conditions: pH 7.0 and 4° C.

## CC(C)C[C@H](NC(=O)[C@H](Cc1ccc(OP(=O)(O)O)cc1)NC(=O)[C@H](CCC(=O)O)NC(=O)[C@H](CC(=O)O)NC(=O)[C@H](C)NC(=O)[C@H](CC(=O)O)NC(=O)CCCCCNC(=O)Cc1cc(=O)oc2cc(O)ccc12)C(N)=O [7-hydroxycoumarin-caproic acid-DADEpYL-NH2]
  Kd: 420 ± 20 nM
